One sequence from article PMC4346627 can be followed below.

The target of one data set is T1, Roquin M199R 1-484 (san) (UniProt Q4VGL6).
T1 sequence (looked up): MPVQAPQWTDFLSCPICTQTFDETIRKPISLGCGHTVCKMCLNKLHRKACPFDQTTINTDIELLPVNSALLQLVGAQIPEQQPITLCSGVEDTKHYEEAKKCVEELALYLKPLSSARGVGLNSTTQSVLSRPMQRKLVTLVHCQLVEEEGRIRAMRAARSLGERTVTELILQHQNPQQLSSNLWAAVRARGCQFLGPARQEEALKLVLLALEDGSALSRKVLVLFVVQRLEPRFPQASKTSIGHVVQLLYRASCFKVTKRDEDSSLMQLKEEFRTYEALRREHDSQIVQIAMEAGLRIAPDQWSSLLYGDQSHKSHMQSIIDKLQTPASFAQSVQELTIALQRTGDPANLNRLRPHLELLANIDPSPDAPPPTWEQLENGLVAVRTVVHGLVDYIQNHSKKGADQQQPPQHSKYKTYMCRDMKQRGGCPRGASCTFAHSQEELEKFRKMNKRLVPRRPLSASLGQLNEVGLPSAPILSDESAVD
Nature of the data set: SPR. Conditions: equilibrium 1:1 fit, immobilized RNA; SPR (Biacore T100, SA chip): 10 mM Tris-HCl pH 7.4, 150 mM NaCl, 1 mM TCEP, 0.05% surfactant P-20, 20 C, 50 ul/min; recombinant protein; residues 1-484; protein details: GST removed with PreScission; label: 5'-biotin. A general note: In SPR one partner is held on a chip, and binding of the other changes the refractive index at the surface.

The target in the next data set is T2, Roquin WT 1-484 (UniProt Q4VGL6).
T2 sequence (looked up): T1 sequence (looked up) with R199M
Nature of the data set: SPR. Conditions: equilibrium 1:1 fit, immobilized RNA; SPR (Biacore T100, SA chip): 10 mM Tris-HCl pH 7.4, 150 mM NaCl, 1 mM TCEP, 0.05% surfactant P-20, 20 C, 50 ul/min; recombinant protein; residues 1-484; protein details: GST removed with PreScission; label: 5'-biotin.

Usually Kd stands for the constant that tells how readily two partners part at equilibrium.

Substitutions are numbered along the chain they refer to. Construct, isoform or probe ends are uncertain for at least one entry. Protein sequences can lack the tags named with them.

For the sequence CUGAGAACUGAAUUCCAUGGGUUAUAUCAAUGUCA, the values for the Kd with Roquin M199R 1-484 (san) and with Roquin WT 1-484 were 110 nM and 370 nM, respectively.
